Assay results taken from the supplement of paper PMC4604168 (melanoma cell lines).
The list shows a part of the results. Single values are uncertain, as repeats are few or missing.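 Imaging used 1,536-well plates; nuclei positive for cleaved PARP by antibody were divided by total DNA-stained nuclei to yield the apoptosis fraction. Doses for screening kept most cells viable, and cell lines differ markedly in resting and induced cleaved-PARP levels.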

Legend:
Assay in all cases: cleaved PARP positive nuclei fraction relative to DMSO control; melanoma cells; higher = more apoptosis
Settings in all cases: library dose: low library concentration; 72 h
A101D = tested on: A101D
A2058 = tested on: A2058
A375 = tested on: A375
C32 = tested on: C32
CBRC008 = tested on: CBRC008 (line from a melanoma biopsy)
CBRC014 = tested on: CBRC014 (line from a melanoma biopsy)
CBRC016 = tested on: CBRC016 (line from a melanoma biopsy)
CBRC017 = tested on: CBRC017 (line from a melanoma biopsy)
CBRC034 = tested on: CBRC034 (line from a melanoma biopsy)
COLO792 = tested on: COLO792
COLO800 = tested on: COLO800
COLO829 = tested on: COLO829
G361 = tested on: G361
IPC-298 = tested on: IPC-298
IST-MEL1 = tested on: IST-MEL1
LOXIMVI = tested on: LOXIMVI
MEL-HO = tested on: MEL-HO

Compound | cleaved PARP positive nuclei fraction (A101D) [%] | cleaved PARP positive nuclei fraction (A2058) [%] | cleaved PARP positive nuclei fraction (A375) [%] | cleaved PARP positive nuclei fraction (C32) [%] | cleaved PARP positive nuclei fraction (CBRC008) [%] | cleaved PARP positive nuclei fraction (CBRC014) [%] | cleaved PARP positive nuclei fraction (CBRC016) [%] | cleaved PARP positive nuclei fraction (CBRC017) [%] | cleaved PARP positive nuclei fraction (CBRC034) [%] | cleaved PARP positive nuclei fraction (COLO792) [%] | cleaved PARP positive nuclei fraction (COLO800) [%] | cleaved PARP positive nuclei fraction (COLO829) [%] | cleaved PARP positive nuclei fraction (G361) [%] | cleaved PARP positive nuclei fraction (IPC-298) [%] | cleaved PARP positive nuclei fraction (IST-MEL1) [%] | cleaved PARP positive nuclei fraction (LOXIMVI) [%] | cleaved PARP positive nuclei fraction (MEL-HO) [%]
CC[C@]1(O)C[C@H]2CN(CCc3c([nH]c4ccccc34)[C@@](C(=O)OC)(c3cc4c(cc3OC)N(C=O)[C@H]3[C@@](O)(C(=O)OC)[C@H](OC(C)=O)[C@]5(CC)C=CCN6CC[C@]43[C@@H]65)C2)C1 [vincristine] + CC(=O)O[C@@]12CO[C@@H]1C[C@H](O)[C@@]1(C)C(=O)[C@H](O)C3=C(C)[C@@H](OC(=O)[C@H](O)[C@@H](NC(=O)OC(C)(C)C)c4ccccc4)C[C@@](O)([C@@H](OC(=O)c4ccccc4)[C@H]21)C3(C)C [Docetaxel] (first compound 0.0001 µM, partner dose 0.0001 µM) | 59.3 | 3090 | 890 | 175 | 229 | 155 | 381 | 177 | 310 | 416 | 235 | 172 | 1110 | 406 | 114 | 174 | 118
Cc1cn(-c2cc(NC(=O)c3ccc(C)c(Nc4nccc(-c5cccnc5)n4)c3)cc(C(F)(F)F)c2)cn1 [nilotinib] + CCCS(=O)(=O)Nc1ccc(F)c(C(=O)c2c[nH]c3ncc(Cl)cc23)c1F [PLX4720] (first compound 0.2 µM, partner dose 0.08 µM) | 161 | 188 | 271 | 172 | 95.4 | 109 | 108 | 112 | 65.1 | 95.3 | 121 | 79.2 | 181 | 179 | 176 | 122 | 150
N#CC[C@H](C1CCCC1)n1cc(-c2ncnc3[nH]ccc23)cn1 [ruxolitinib] + c1cc(-c2cnn3cc(-c4ccc(OCCN5CCCCC5)cc4)cnc23)ccn1 [Dorsomorphin] (first compound 1 µM, partner dose 0.4 µM) | 36.4 | 64.3 | – | 253 | 54.5 | 92.2 | 5620 | 82.1 | – | 150 | 56.4 | 33 | 63.3 | 48 | 69.7 | 245 | –
Cc1ccc(Nc2nccc(N(C)c3ccc4c(C)n(C)nc4c3)n2)cc1S(N)(=O)=O [Pazopanib] + CC(C)CCN1c2nc(Nc3cc(F)c(O)c(F)c3)ncc2N(C)C(=O)C1C [BID1870] (first compound 0.4 µM, partner dose 0.2 µM) | 21.2 | 27.1 | – | 49.6 | 202 | 101 | 88.3 | 177 | – | 81.5 | 52.2 | 102 | 88.2 | 110 | 73 | 78.6 | –
CC[C@]1(O)C[C@H]2CN(CCc3c([nH]c4ccccc34)[C@@](C(=O)OC)(c3cc4c(cc3OC)N(C=O)[C@H]3[C@@](O)(C(=O)OC)[C@H](OC(C)=O)[C@]5(CC)C=CCN6CC[C@]43[C@@H]65)C2)C1 [vincristine] + Cn1c(=O)n(-c2ccc(C(C)(C)C#N)cc2)c2c3cc(-c4cnc5ccccc5c4)ccc3ncc21 [NVP-BEZ235] (first compound 0.0001 µM, partner dose 0.004 µM) | 172 | 161 | 238 | 174 | 387 | 111 | 69.2 | 127 | 84.2 | 97.5 | 103 | 137 | 113 | 167 | 180 | 153 | 142
Cc1cc(Nc2cc(N3CCN(C)CC3)nc(Sc3ccc(NC(=O)C4CC4)cc3)n2)n[nH]1 [Tozasertib] + N#CC[C@H](C1CCCC1)n1cc(-c2ncnc3[nH]ccc23)cn1 [ruxolitinib] (first compound 0.006 µM, partner dose 1 µM) | 136 | 66.2 | 101 | 64.4 | 104 | 82.5 | 64.2 | 108 | 181 | 100 | 119 | 92.7 | 103 | 85.3 | 142 | 123 | 34.1
O=c1[nH]nc(Sc2ncc([N+](=O)[O-])s2)n1-c1ccc2c(c1)OCCO2 + OCc1c[nH]c2ccccc12 [Indole-3-carbinol] (first compound 0.2 µM, partner dose 0.8 µM) | 315 | 172 | 158 | 78.2 | 91.1 | 102 | 101 | 115 | 140 | 129 | 127 | 123 | 56.5 | 332 | 62.5 | 199 | 119
O=C(Nc1cc(C(F)(F)F)cc(C(F)(F)F)c1)c1cc(Cl)ccc1O + Cc1cc([N+](=O)[O-])ccc1NS(=O)(=O)c1cc(Cl)ccc1Cl [FH535] (first compound 0.016 µM, partner dose 1 µM) | 9.38 | 160 | – | 72.4 | 496 | 154 | 2120 | 346 | – | 125 | 85.2 | 66.1 | 118 | 56.8 | 146 | 47.9 | –
COc1cc([C@@H]2c3cc4c(cc3[C@@H](O[C@@H]3O[C@@H]5CO[C@@H](C)O[C@H]5[C@H](O)[C@H]3O)[C@H]3COC(=O)[C@H]23)OCO4)cc(OC)c1O [etoposide] + O=c1cc(-c2cccc3c2Sc2ccccc2S3)oc(N2CCOCC2)c1 [KU55933] (first compound 0.02 µM, partner dose 1 µM) | 26.3 | 56.5 | – | 83.8 | 147 | 87.9 | 124 | 105 | – | 122 | 108 | 19.7 | 84.6 | 91.8 | 87.6 | 134 | –
N#CC[C@H](C1CCCC1)n1cc(-c2ncnc3[nH]ccc23)cn1 [ruxolitinib] + NC1(c2ccc(-c3nc4ccn5c(=O)[nH]nc5c4cc3-c3ccccc3)cc2)CCC1 [MK2206] (first compound 1 µM, partner dose 0.4 µM) | 37.5 | 147 | 102 | 75.6 | 138 | 92.1 | 103 | 90.1 | 43.4 | 135 | 31.1 | 101 | 178 | 110 | 199 | 214 | 156
N#CC[C@H](C1CCCC1)n1cc(-c2ncnc3[nH]ccc23)cn1 [ruxolitinib] + CCN(CC)CCCCNc1ncc2cc(-c3cc(OC)cc(OC)c3)c(NC(=O)NC(C)(C)C)nc2n1 [PD173074] (first compound 1 µM, partner dose 0.1 µM) | – | 86.7 | – | 40 | 57.7 | 75 | 64.3 | 65.9 | – | 247 | 34.6 | 158 | 141 | 57.7 | 99.7 | 61.1 | –
O=C(/C=C/c1cccnc1)NCCCCC1CCN(C(=O)c2ccccc2)CC1 + Nc1nc(F)nc2c1ncn2[C@@H]1O[C@H](CO)[C@@H](O)[C@@H]1O [fludarabine] (first compound 0.01 µM, partner dose 0.2 µM) | 99.9 | 22.2 | 3160 | 41.7 | 3960 | 217 | 903 | 496 | 2100 | 333 | 67 | 68.5 | 1320 | 193 | 35.9 | 92.7 | 63.1
Cc1cc(Nc2cc(N3CCN(C)CC3)nc(Sc3ccc(NC(=O)C4CC4)cc3)n2)n[nH]1 [Tozasertib] + CC(C)CCN1c2nc(Nc3cc(F)c(O)c(F)c3)ncc2N(C)C(=O)C1C [BID1870] (first compound 0.006 µM, partner dose 0.2 µM) | 93.1 | 51 | – | 108 | 128 | 102 | 65.2 | 76.3 | – | 109 | 115 | 147 | 185 | 95.6 | 132 | 61.6 | –
O=c1[nH]nc(Sc2ncc([N+](=O)[O-])s2)n1-c1ccc2c(c1)OCCO2 + CS(=O)(=O)CCNCc1ccc(-c2ccc3ncnc(Nc4ccc(OCc5cccc(F)c5)c(Cl)c4)c3c2)o1 [lapatinib] (first compound 0.2 µM, partner dose 0.8 µM) | 84.6 | 221 | 31.1 | 80.9 | 109 | 112 | 94.3 | 122 | 87.4 | 136 | 147 | 111 | 124 | 91.3 | 122 | 114 | 70.4
O=C(Nc1cc(C(F)(F)F)cc(C(F)(F)F)c1)c1cc(Cl)ccc1O + CCCCCCCCCCCC1=C(O)C(=O)C=C(O)C1=O [Embelin] (first compound 0.016 µM, partner dose 1.2 µM) | 25.1 | 173 | – | 83.7 | 57.8 | 99.4 | 44.5 | 106 | – | 123 | 132 | 61.9 | 153 | 93.2 | 34.4 | 83.6 | –
O=C(Nc1cc(C(F)(F)F)cc(C(F)(F)F)c1)c1cc(Cl)ccc1O + COc1ccc2c(c1)CCC1C2CCC2(C)C(NCCCCCCN3C(=O)C=CC3=O)CCC12 [U73122] (first compound 0.016 µM, partner dose 0.4 µM) | 7.46 | 41.8 | – | 140 | 38.1 | 95.7 | 154 | 98.8 | – | 60.4 | 124 | 414 | 39.3 | 45.5 | 48.7 | 100 | –
COc1cc([C@@H]2c3cc4c(cc3[C@@H](O[C@@H]3O[C@@H]5CO[C@@H](C)O[C@H]5[C@H](O)[C@H]3O)[C@H]3COC(=O)[C@H]23)OCO4)cc(OC)c1O [etoposide] + COC(=O)c1sccc1S(=O)(=O)Nc1ccc(Nc2ccccc2)cc1OC [GSK0660] (first compound 0.02 µM, partner dose 1 µM) | 19.6 | 57 | – | 59.9 | 150 | 129 | 103 | 82 | – | 90.6 | 135 | 78.5 | 112 | 64.5 | 137 | 124 | –
O=C(/C=C/c1cccnc1)NCCCCC1CCN(C(=O)c2ccccc2)CC1 + CCN(CC)CCCCNc1ncc2cc(-c3cc(OC)cc(OC)c3)c(NC(=O)NC(C)(C)C)nc2n1 [PD173074] (first compound 0.01 µM, partner dose 0.1 µM) | 15.2 | 83.7 | – | 127 | 2880 | 95.3 | 425 | 248 | – | 305 | 150 | 268 | 2080 | 117 | 126 | 53.4 | –

Three neighbouring records out of the list so far, quoted:
Compound | cleaved PARP positive nuclei fraction (A101D) [%] | cleaved PARP positive nuclei fraction (A2058) [%] | cleaved PARP positive nuclei fraction (A375) [%] | cleaved PARP positive nuclei fraction (C32) [%] | cleaved PARP positive nuclei fraction (CBRC008) [%] | cleaved PARP positive nuclei fraction (CBRC014) [%] | cleaved PARP positive nuclei fraction (CBRC016) [%] | cleaved PARP positive nuclei fraction (CBRC017) [%] | cleaved PARP positive nuclei fraction (CBRC034) [%] | cleaved PARP positive nuclei fraction (COLO792) [%] | cleaved PARP positive nuclei fraction (COLO800) [%] | cleaved PARP positive nuclei fraction (COLO829) [%] | cleaved PARP positive nuclei fraction (G361) [%] | cleaved PARP positive nuclei fraction (IPC-298) [%] | cleaved PARP positive nuclei fraction (IST-MEL1) [%] | cleaved PARP positive nuclei fraction (LOXIMVI) [%] | cleaved PARP positive nuclei fraction (MEL-HO) [%]
COc1cc([C@@H]2c3cc4c(cc3[C@@H](O[C@@H]3O[C@@H]5CO[C@@H](C)O[C@H]5[C@H](O)[C@H]3O)[C@H]3COC(=O)[C@H]23)OCO4)cc(OC)c1O [etoposide] + O=c1cc(-c2cccc3c2Sc2ccccc2S3)oc(N2CCOCC2)c1 [KU55933] (first compound 0.02 µM, partner dose 1 µM) | 26.3 | 56.5 | – | 83.8 | 147 | 87.9 | 124 | 105 | – | 122 | 108 | 19.7 | 84.6 | 91.8 | 87.6 | 134 | –
N#CC[C@H](C1CCCC1)n1cc(-c2ncnc3[nH]ccc23)cn1 [ruxolitinib] + NC1(c2ccc(-c3nc4ccn5c(=O)[nH]nc5c4cc3-c3ccccc3)cc2)CCC1 [MK2206] (first compound 1 µM, partner dose 0.4 µM) | 37.5 | 147 | 102 | 75.6 | 138 | 92.1 | 103 | 90.1 | 43.4 | 135 | 31.1 | 101 | 178 | 110 | 199 | 214 | 156
N#CC[C@H](C1CCCC1)n1cc(-c2ncnc3[nH]ccc23)cn1 [ruxolitinib] + CCN(CC)CCCCNc1ncc2cc(-c3cc(OC)cc(OC)c3)c(NC(=O)NC(C)(C)C)nc2n1 [PD173074] (first compound 1 µM, partner dose 0.1 µM) | – | 86.7 | – | 40 | 57.7 | 75 | 64.3 | 65.9 | – | 247 | 34.6 | 158 | 141 | 57.7 | 99.7 | 61.1 | –
